This is one part of the list.

The test concerns the target T1, OsSMF1 (Oryza sativa, UniProt Q6ZLB0 1-436).
T1 sequence: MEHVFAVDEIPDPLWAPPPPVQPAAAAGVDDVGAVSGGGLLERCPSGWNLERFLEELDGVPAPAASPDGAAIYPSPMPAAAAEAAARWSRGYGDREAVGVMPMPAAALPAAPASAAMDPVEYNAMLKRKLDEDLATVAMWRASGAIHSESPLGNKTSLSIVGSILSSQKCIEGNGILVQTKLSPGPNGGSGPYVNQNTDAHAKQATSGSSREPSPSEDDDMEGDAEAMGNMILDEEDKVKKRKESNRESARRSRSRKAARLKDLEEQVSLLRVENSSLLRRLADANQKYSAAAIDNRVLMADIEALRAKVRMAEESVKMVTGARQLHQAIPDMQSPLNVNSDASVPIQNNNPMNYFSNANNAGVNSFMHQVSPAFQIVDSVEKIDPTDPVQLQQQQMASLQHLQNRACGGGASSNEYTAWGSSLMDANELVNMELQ
Briefly: protein-binding microarray (RPBM); PBS, 2% BSA, 51.3 ng/ul salmon testes DNA, 50 uM zinc acetate, 200 nM TF, 25 C, 1 h; high values mean tight binding. As to conditions: protein: recombinant; tags: N-terminal polyhistidine and DsRed monomer fusion (pET32a); chain copies: 2; label: CyDye5-dUTP incorporated in the synthesized complementary strand; 3' TTTTT single-stranded linker to array surface; dsDNA, one strand shown. The method, boiled down: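 Per-feature fluorescence intensity (arbitrary units), read on an Axon 4000B scanner, is the binding signal. Transcription factors carrying an N-terminal polyhistidine tag and DsRed fusion were expressed in E. coli BL21-CodonPlus and purified on Ni–NTA. A custom Agilent array, made double-stranded by primer extension with Cy5-dUTP and blocked with 2% BSA, was incubated with 200 nM protein in PBS, 2% BSA, salmon testes DNA and 50 µM zinc acetate at 25 °C for 1 h and then washed.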
In the case of “TTGTTCCTCCTGTTGTCGCTCTGGAGAGTGGAGAGCTCTTCGGAGTCACCTAGTGCAG”, the binding signal was 24400 fluorescence intensity (a.u.).
Then “GCCGACCAGCTCTGGATGCTGCGCGACGCGTGGCCACGACCGGAGTCACCTAGTGCAG”, with 4010 fluorescence intensity (a.u.).
Then “TAGGGCTATGAAAATGGCCATGTGAGTCATGACACTCTGACGGAGTCACCTAGTGCAG”, with 8980 fluorescence intensity (a.u.).
As for “CAGCTGCGTAGCCATCACCGCCTGCGTCGCAGAGAGGGCCCGGAGTCACCTAGTGCAG”, the figure is 3200 fluorescence intensity (a.u.); as for “CGACGATGATGATGATGATGACGATGACGAAGAAGATGGCCGGAGTCACCTAGTGCAG”, 3340 fluorescence intensity (a.u.).
For the sequence “CTCCTGCGCGGCCACGTCTCACCTACCACCACCTTACCCTCGGAGTCACCTAGTGCAG”, the binding signal is 4120 fluorescence intensity (a.u.).
As for “AACTTCTGCTGTCTCTGTTAGGATTATGACGTTGCTAATTCGGAGTCACCTAGTGCAG”, the figure is 3900 fluorescence intensity (a.u.); as for “AACACAGTCGCCGCACACATGACACGCACGAACGCCTCTCCGGAGTCACCTAGTGCAG”, 4940 fluorescence intensity (a.u.); as for “CGTTTCAAATTTCATCCTTCCCCGTAAAGAATTCGTATTCCGGAGTCACCTAGTGCAG”, 20600 fluorescence intensity (a.u.).
Then “TAGTAACCAACAACACACGTGTGTTCCAGAGGCTTCAACCCGGAGTCACCTAGTGCAG”, with 4520 fluorescence intensity (a.u.).
As for “TAATCATCCAAATGCAAGCTGACGAACCTGCTATTCCCAGCGGAGTCACCTAGTGCAG”, the figure is 3340 fluorescence intensity (a.u.).
As for “GAAAGGCTATCCACTCATACATGTTGGTGTCAGATACTCTCGGAGTCACCTAGTGCAG”, the binding signal is 4630 fluorescence intensity (a.u.).
Consider “CTCGGTTGAGACCGACGTGTCCGCATCCTGCCGCACTACCCGGAGTCACCTAGTGCAG”, for which the binding signal was 7270 fluorescence intensity (a.u.).
Then “CCATAGACTTCACTACTCATCTTGTTCGTCGTTTTAGTTGCGGAGTCACCTAGTGCAG”, with 15700 fluorescence intensity (a.u.); and “TGGCAATTGTCAAGTCAACCAGCTCATCATCCAATTGTTGCGGAGTCACCTAGTGCAG”, with 3200 fluorescence intensity (a.u.); and “TCGCCGTCCCCGTGTGTGGGCGGCCGCCTCCTGCTGCGCGCGGAGTCACCTAGTGCAG”, with 3230 fluorescence intensity (a.u.).
As for “GGTATCGACAATCAACACGTCCTCGAACTACCTGTAGAACCGGAGTCACCTAGTGCAG”, the figure is 3230 fluorescence intensity (a.u.).
As for “CCGCCGCCGCCGCTCGATTCCAACGTCTCAACCCTGACCTCGGAGTCACCTAGTGCAG”, the figure is 23700 fluorescence intensity (a.u.).
For the sequence “AAACGAATCTAGGAATATATGTGACACATCATAGTACTACCGGAGTCACCTAGTGCAG”, the binding signal was 4370 fluorescence intensity (a.u.).
Then “GCGCGCACGTACGCCTAAACCGAACGCACACGCACGCGCGCGGAGTCACCTAGTGCAG”, with 3640 fluorescence intensity (a.u.); and “GCCAAGCCCGAATGATTCCACCACACGCCACCGATTCGATCGGAGTCACCTAGTGCAG”, with 3770 fluorescence intensity (a.u.); and “AGGAGGGGTGGAGCTGGAGCTGGAGCTGTGCCAAACAGGCCGGAGTCACCTAGTGCAG”, with 3190 fluorescence intensity (a.u.).
As for “GGGAGCGATCAAGGAGAAGCTGACGGTGAGCCTAGCGGCGCGGAGTCACCTAGTGCAG”, the figure is 3150 fluorescence intensity (a.u.); as for “CCTAAACACTACGCAATTTGGCGGGTAGCTGAGTAGATTACGGAGTCACCTAGTGCAG”, 3200 fluorescence intensity (a.u.).
As for “TCGGCGACCACCAACACCTATAAGTAGAGGCAGGCACCAACGGAGTCACCTAGTGCAG”, the binding signal is 26300 fluorescence intensity (a.u.).
For the sequence “TCAAGAAATCCACGTTTGACGAATAACCGGAATATTCGATCGGAGTCACCTAGTGCAG”, the binding signal was 3660 fluorescence intensity (a.u.).
Then “AAATGACGTATCTATAGGAGAGACTATGATCAACGGTAACCGGAGTCACCTAGTGCAG”, with 3150 fluorescence intensity (a.u.).
Then “GTTTTGCGCCGCCCGCACTGCCAGCCGCTGCCACGCTGCTCGGAGTCACCTAGTGCAG”, with 3920 fluorescence intensity (a.u.); and “CTTGCCAGCAATGCATCACTGCCGGTCACCGGCTACCACGCGGAGTCACCTAGTGCAG”, with 4720 fluorescence intensity (a.u.).
Take “CCGCCGCCGCCGACGCCGCGGGATAGCACTGACCGGAGCGCGGAGTCACCTAGTGCAG”: the binding signal was 19700 fluorescence intensity (a.u.).
Then “AATCATGGCGATTTGAGGGCAGGTGATCGATGACTGTGTACGGAGTCACCTAGTGCAG”, with 5020 fluorescence intensity (a.u.); and “GCACGTGTTGCGCACGGCGCACGCCGCCGCAAACTCTTTTCGGAGTCACCTAGTGCAG”, with 22000 fluorescence intensity (a.u.); and “GTCAGAGCGGGGTCAATGAACGAGCACCGCACATCATCATCGGAGTCACCTAGTGCAG”, with 4140 fluorescence intensity (a.u.).
As for “CAATGTAACATGGTGATTCAGCACTTCTGGTGAAGTTGTGCGGAGTCACCTAGTGCAG”, the figure is 6000 fluorescence intensity (a.u.); as for “GTTGCAACCTCCCGCCTCACCCGCCGCCATTGACGACCACCGGAGTCACCTAGTGCAG”, 3340 fluorescence intensity (a.u.).
With “CTCATTCTAAGACATGATGCTACGCGACACGATGGCACTTCGGAGTCACCTAGTGCAG”, the binding signal is 4330 fluorescence intensity (a.u.).
As for “ACGTATATCTCTTTAAAGCAAATTTACTGCCTCCGATACGCGGAGTCACCTAGTGCAG”, the figure is 31300 fluorescence intensity (a.u.); as for “TGTACTATGTTATTAATGTACATCACACTTAAGTGATCGACGGAGTCACCTAGTGCAG”, 21500 fluorescence intensity (a.u.); as for “ATATATATATATATATATATATATGACCACCTCTCCTCCTCGGAGTCACCTAGTGCAG”, 4400 fluorescence intensity (a.u.).
“TGTTTCAGCCATCAATCCGCGTTTTGGTGTCGCGTCGAATCGGAGTCACCTAGTGCAG”: the binding signal was 3420 fluorescence intensity (a.u.).
In the case of “GCCGTGAACCAAAGCTCTTGCCGTGCTGTGCCGTGCCGGTCGGAGTCACCTAGTGCAG”, the binding signal is 3220 fluorescence intensity (a.u.).
Then “CCATTCTTGTCCAACCCACTCTCGTCATATCCCATTGCCACGGAGTCACCTAGTGCAG”, with 3500 fluorescence intensity (a.u.).

For the origin of these results see PMC7819943, “Rice protein-binding microarrays: a tool to detect cis-acting elements near promoter regions in rice”.
